Experimental data as given in publication PMC7541391.
No constants are given. Whether binding was seen depends on the method and setting. In cells and extracts the contact can be indirect. Some binding calls cover weakened binding; strength is not graded here. Where a sequence is shown, tags or fusion partners need not be part of it.

Biological target: T1, GST-FABP7wt (mouse) (UniProt P51880)
T1 sequence: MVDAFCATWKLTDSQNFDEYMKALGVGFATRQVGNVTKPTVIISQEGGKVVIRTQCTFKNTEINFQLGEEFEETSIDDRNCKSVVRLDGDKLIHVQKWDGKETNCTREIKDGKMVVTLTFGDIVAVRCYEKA
Assay: pull-down; GST-FABP7 from Sf21 cells immobilised on Glutathione Sepharose 4B, incubated at 4 °C for 4 h with lysate of FABP7-KO primary cultured astrocytes or NIH-3T3 cells; western blot; only the target purified

binding: binds
B1: ATP-citrate lyase (mouse, from astrocytes and NIH-3T3 cells) (enzyme, UniProt Q91V92 1-1091)
chain: MSAKAISEQTGKELLYKYICTTSAIQNRFKYARVTPDTDWAHLLQDHPWLLSQSLVVKPDQLIKRRGKLGLVGVNLSLDGVKSWLKPRLGHEATVGKAKGFLKNFLIEPFVPHSQAEEFYVCIYATREGDYVLFHHEGGVDVGDVDAKAQKLLVGVDEKLNTEDIKRHLLVHAPEDKKEVLASFISGLFNFYEDLYFTYLEINPLVVTKDGVYILDLAAKVDATADYICKVKWGDIEFPPPFGREAYPEEAYIADLDAKSGASLKLTLLNPKGRIWTMVAGGGASVVYSDTICDLGGVNELANYGEYSGAPSEQQTYDYAKTILSLMTREKHPEGKILIIGGSIANFTNVAATFKGIVRAIRDYQGPLKEHEVTIFVRRGGPNYQEGLRVMGEVGKTTGIPIHVFGTETHMTAIVGMALGHRPIPNQPPTAAHTANFLLNASGSTSTPAPSRTASFSESRADEVAPAKKAKPAMPQGKSATLFSRHTKAIVWGMQTRAVQGMLDFDYVCSRDEPSVAAMVYPFTGDHKQKFYWGHKEILIPVFKNMADAMKKHPEVDVLINFASLRSAYDSTMETMNYAQIRTIAIIAEGIPEALTRKLIKKADQKGVTIIGPATVGGIKPGCFKIGNTGGMLDNILASKLYRPGSVAYVSRSGGMSNELNNIISRTTDGVYEGVAIGGDRYPGSTFMDHVLRYQDTPGVKMIVVLGEIGGTEEYKICRGIKEGRLTKPVVCWCIGTCATMFSSEVQFGHAGACANQASETAVAKNQALKEAGVFVPRSFDELGEIIQSVYEDLVAKGAIVPAQEVPPPTVPMDYSWARELGLIRKPASFMTSICDERGQELIYAGMPITEVFKEEMGIGGVLGLLWFQRRLPKYSCQFIEMCLMVTADHGPAVSGAHNTIICARAGKDLVSSLTSGLLTIGDRFGGALDAAAKMFSKAFDSGIIPMEFVNKMKKEGKLIMGIGHRVKSINNPDMRVQILKDFVKQHFPATPLLDYALEVEKITTSKKPNLILNVDGFIGVAFVDMLRNCGSFTREEADEYVDIGALNGIFVLGRSMGFIGHYLDQKRLKQGLYRHPWDDISYVLPEHMSM
